Laboratory results as given in publication PMC5593696.

Molecular target: 14-3-3 protein (human (endogenous in T-47D and MFM-223))
Assay: co-IP; IP of endogenous 14-3-3 with rabbit polyclonal 14-3-3 (pan) antibody from T-47D and MFM-223 lysates; non-denaturing lysis buffer (20 mM Tris HCl pH 8, 137 nM NaCl, 10% glycerol, 1% NP-40, 2 mM EDTA), overnight at 4°C, Protein A-Sepharose beads; immunoblot for 14-3-3, C1orf64 and AR; control non-specific rabbit IgG; three replicates

binding: binds
B1: C1orf64 (protein, UniProt Q8NEQ6 1-169)
chain: MAPSEDPRDWRANLKGTIRETGLETSSGGKLAGHQKTVPTAHLTFVIDCTHGKQLSLAATASPPQAPSPNRGLVTPPMKTYIVFCGENWPHLTRVTPMGGGCLAQARATLPLCRGSVASASFPVSPLCPQEVPEAKGKPVKAAPVRSSTWGTVKDSLKALSSCVCGQAD

Results are given in words; binding and its absence hold for the method and conditions named. Binding seen in cells or lysates may run through a third protein. A result given as binding can be weak or reduced; the word gives no strength.
